# US8486991B2, “Enantiomerically pure phosphoindoles as HIV inhibitors” (Idenix Pharmaceuticals, Inc., priority 2006, dated 2013)
# Some results were stated once for a whole list of compounds, not compound by compound.
# Assays:
# [1] = system: 9 different HIV-1 subtypes (A, B, C, D, F1, G, H, AE, AG), 18 viruses; test: PhenoSense testing, HIV-1 subtype panel; assay type: cell-based; conditions: data not shown
# Description: The activities of the test and control compounds were next tested against a subtype panel which covers all major HIV-1 subtypes or clades (A, B, C, D, F1, G, H, AE and AG). This panel was part of a 64 virus panel selected from the large library of clinical isolates Monogram BioSciences (formerly ViroLogics). Each of the subtypes in the panel was represented by 2 distinct viruses which share many sequence similarities, but also some key differences and therefore could respond differently to one or more of the drugs included in this study.
# [2] = Plasma protein binding by equilibrium dialysis, monkey; assay type: in vitro ADME; conditions: listed as compound I
# Method: (§1) The in vitro plasma protein binding of compound I and compound III in rat, dog, monkey and human plasma was determined by equilibrium dialysis. Protein binding was assessed by equilibrium dialysis using rat, dog, monkey and human plasma. Samples were assayed by HPLC with LC-MS/MS detection. Plasma protein binding was high (>99%) for all species and for both compounds.
# [3] = Plasma protein binding by equilibrium dialysis, human; assay type: in vitro ADME; conditions: listed as compound I
# Method: as §1
# [4] = system: HIV-1 BH10 W.T.; test: Anti-HIV-1 BH10 W.T. activity in presence of HS or AAG; assay type: cell-based; conditions: Table 20; vs 10% FBS only
# [5] = system: HIV-1 BH10 K103N mutant virus; assay type: cell-based; conditions: Table 9; CPE
# Method: The activity of the compounds was also assessed with the same virus and cell type using a different assay readout based on cytopathic effect (CPE).
# MT-4 cells (Source: NIH Catalog #120) were seeded onto 96-well cell culture plates (1×10^4 cells per well in 50 μL).
# The final DMSO concentration in the assay was 0.5% in 120 μL. Cell cultures were then incubated at 37° C./5% CO2 for 4 days. Then, Cell Titer 96 AQueous One Solution Cell Proliferation Assay (Promega) was used to measure cell viability. Briefly, the One Solution Reagent was added directly to culture wells (20 μL/well), incubated for 5 hours, and the absorbance was recorded at 492 nm using the Sunrise Tecan Spectrophotometer.
# The EC50 values were determined from the percent inhibition versus concentration data using a sigmoidal non-linear regression analysis based on four parameters with Tecan Magellan software.
smiles,measurement,setting,value
"CO[P@](=O)(c1cc(C)cc(/C=C/C#N)c1)c1c(C(N)=O)[nH]c2ccc(Cl)c(F)c12 [Compound I, (2-Carbamoyl-5-chloro-4-fluoro-1H-indol-3-yl)-[3-((E)-2-cyano-vinyl)-5-methyl-phenyl]-(R)-phosphinic acid methyl ester]",activity against subtype panel relative to wild type activity values,[1],≤ 2 fold
same,"Percentage Plasma Protein Binding, Monkeys",[2],> 99%
same,"Percentage Plasma Protein Binding, Humans",[3],> 99%
same,"Fold Change, 10% Fetal Bovine Serum + AAG",[4],< 3 fold
same,"Fold Change, K103N",[5],< 1.8 fold
"CO[P@](=O)(c1cc(C)cc(/C=C/C#N)c1)c1c(C(N)=O)[nH]c2ccc(Cl)cc12 [Compound III, (2-Carbamoyl-5-chloro-1H-indol-3-yl)-[3-((E)-2-cyano-vinyl)-5-methyl-phenyl]-(R)-phosphinic acid methyl ester]",activity against subtype panel relative to wild type activity values,[1],≤ 2 fold
same,"Fold Change, 10% Fetal Bovine Serum + AAG",[4],< 3 fold
same,"Fold Change, K103N",[5],< 1.8 fold
"O=C1Nc2ccc(Cl)cc2C(C#CC2CC2)(C(F)(F)F)O1 (stereo not drawn) [EFV, 6-chloro-4-cyclopropylethynyl-4-trifluoromethyl-1,4-dihydro-2H-3,1-benzoxazin-2-one, reference compound]",activity against subtype panel relative to wild type activity values,[1],≤ 2 fold
